These results are taken from publication PMC6759196.

The target in the experiment is Smlt3024 (Stenotrophomonas maltophilia K279a) (UniProt B2FJJ5). Kind of experiment: SEC-MALS; Superdex 200 10/300 GL coupled to a Wyatt MALS detector; isolated proteins and their mixture analysed, peaks checked by SDS-PAGE; dn/dc = 0.185 mL/g; both purified.

These are yes or no findings as the source states them, for the method shown.

For Smlt3024 (from UniProt B2FJJ5 1-440), the binding result is “no binding”.
